Source: article PMC8118307
No constants are given. Whether binding was seen depends on the method and setting. Binding seen in cells or lysates may run through a third protein. Some results given as binding are weak or reduced against the parent protein; the word gives no strength.

The chains behind the UniProt entries cited, without tags or fusion partners.
UniProt P19525: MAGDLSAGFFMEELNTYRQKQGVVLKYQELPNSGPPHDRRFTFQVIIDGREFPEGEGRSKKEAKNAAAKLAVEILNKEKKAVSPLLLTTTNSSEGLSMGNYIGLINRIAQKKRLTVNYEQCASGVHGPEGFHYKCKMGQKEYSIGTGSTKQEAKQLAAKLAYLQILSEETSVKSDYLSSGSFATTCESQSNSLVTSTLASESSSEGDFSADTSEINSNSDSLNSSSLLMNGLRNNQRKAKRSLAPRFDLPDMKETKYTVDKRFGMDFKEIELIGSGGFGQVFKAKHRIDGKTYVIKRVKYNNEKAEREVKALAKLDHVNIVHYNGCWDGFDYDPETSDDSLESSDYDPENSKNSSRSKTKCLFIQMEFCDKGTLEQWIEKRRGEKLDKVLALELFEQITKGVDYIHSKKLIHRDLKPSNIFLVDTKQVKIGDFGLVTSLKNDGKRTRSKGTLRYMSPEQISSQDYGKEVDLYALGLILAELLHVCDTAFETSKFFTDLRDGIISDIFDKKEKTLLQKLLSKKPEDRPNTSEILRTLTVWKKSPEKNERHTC

T1: N-terVenus:DICER N1 (human) (UniProt Q9UPY3)
T1 sequence: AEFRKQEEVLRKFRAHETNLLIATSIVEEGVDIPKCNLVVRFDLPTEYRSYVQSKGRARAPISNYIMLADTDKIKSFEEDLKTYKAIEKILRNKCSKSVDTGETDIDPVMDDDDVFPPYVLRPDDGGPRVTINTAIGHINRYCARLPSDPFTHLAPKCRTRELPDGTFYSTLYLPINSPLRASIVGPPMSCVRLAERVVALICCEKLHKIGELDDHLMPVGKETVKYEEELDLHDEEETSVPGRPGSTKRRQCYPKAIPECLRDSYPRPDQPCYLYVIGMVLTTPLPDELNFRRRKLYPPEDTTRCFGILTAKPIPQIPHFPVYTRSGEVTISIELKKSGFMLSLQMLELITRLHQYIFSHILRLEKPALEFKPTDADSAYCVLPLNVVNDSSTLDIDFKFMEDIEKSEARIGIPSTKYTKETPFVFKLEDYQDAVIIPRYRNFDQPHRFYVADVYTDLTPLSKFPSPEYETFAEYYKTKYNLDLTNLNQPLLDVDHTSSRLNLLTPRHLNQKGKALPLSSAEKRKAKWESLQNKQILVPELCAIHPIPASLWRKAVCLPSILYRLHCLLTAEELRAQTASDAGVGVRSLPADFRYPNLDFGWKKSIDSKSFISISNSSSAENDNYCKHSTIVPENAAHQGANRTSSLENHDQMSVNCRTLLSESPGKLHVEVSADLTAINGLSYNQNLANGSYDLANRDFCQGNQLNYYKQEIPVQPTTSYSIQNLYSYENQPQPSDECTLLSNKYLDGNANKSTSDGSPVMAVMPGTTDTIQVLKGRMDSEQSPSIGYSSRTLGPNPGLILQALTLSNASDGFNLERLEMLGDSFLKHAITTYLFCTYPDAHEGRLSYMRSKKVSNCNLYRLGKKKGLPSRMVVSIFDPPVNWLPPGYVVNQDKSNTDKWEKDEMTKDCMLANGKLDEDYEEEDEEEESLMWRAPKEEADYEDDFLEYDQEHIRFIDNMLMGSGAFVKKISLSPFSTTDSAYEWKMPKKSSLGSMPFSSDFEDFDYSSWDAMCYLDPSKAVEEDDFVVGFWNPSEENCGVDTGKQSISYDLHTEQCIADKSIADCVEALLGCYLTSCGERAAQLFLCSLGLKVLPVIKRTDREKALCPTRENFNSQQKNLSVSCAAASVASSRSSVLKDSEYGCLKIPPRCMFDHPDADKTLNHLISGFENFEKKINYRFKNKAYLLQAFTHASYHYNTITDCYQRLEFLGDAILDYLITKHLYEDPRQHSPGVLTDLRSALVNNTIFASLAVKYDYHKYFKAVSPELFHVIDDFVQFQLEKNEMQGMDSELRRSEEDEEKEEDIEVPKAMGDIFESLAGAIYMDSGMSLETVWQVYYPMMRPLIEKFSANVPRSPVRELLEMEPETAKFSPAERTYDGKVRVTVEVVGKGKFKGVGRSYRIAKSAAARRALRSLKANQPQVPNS


Columns and labels:
[1] = molecular target: N-terVenus:DICER (wild type) (human) (UniProt Q9UPY3); experiment: split reporter; BiFC with Venus halves, plasmids co-transfected for 24 h in HEK293T cells (endogenous DICER and PKR present), then mock or SINV (MOI 2, 6 h); epifluorescence
[2] = molecular target: T1, N-terVenus:DICER N1 (human); experiment: split reporter; BiFC with Venus halves, plasmids co-transfected for 24 h in NoDiceΔPKR HEK293T cells, then mock or SINV (MOI 2, 6 h); epifluorescence on living cells or confocal microscopy on fixed cells
[3] = molecular target: FHA:DICER WT (transfected in NoDice 2.20 cells) (human) (UniProt Q9UPY3); experiment: co-IP; as a12, mock (not infected) NoDice 2.20 cells only

| binding [1] | binding [2] | binding [3] | Molecule |
| --- | --- | --- | --- |
| binds | no binding |  | PKR:Venus C-ter (from UniProt P19525 1-551) (enzyme) |
| binds | no binding |  | PACT:Venus C-ter (protein, UniProt O75569 1-313) MSQSRHRAEAPPLEREDSGTFSLGKMITAKPGKTPIQVLHEYGMKTKNIPVYECERSDVQIHVPTFTFRVTVGDITCTGEGTSKKLAKHRAAEAAINILKANASICFAVPDPLMPDPSKQPKNQLNPIGSLQELAIHHGWRLPEYTLSQEGGPAHKREYTTICRLESFMETGKGASKKQAKRNAAEKFLAKFSNISPENHISLTNVVGHSLGCTWHSLRNSPGEKINLLKRSLLSIPNTDYIQLLSEIAKEQGFNITYLDIDELSANGQYQCLAELSTSPITVCHGSGISCGNAQSDAAHNALQYLKIIAERK |
|  |  | binds weakly | protein activator of interferon-induced protein kinase R (PACT), endogenous (protein, UniProt O75569 1-313) MSQSRHRAEAPPLEREDSGTFSLGKMITAKPGKTPIQVLHEYGMKTKNIPVYECERSDVQIHVPTFTFRVTVGDITCTGEGTSKKLAKHRAAEAAINILKANASICFAVPDPLMPDPSKQPKNQLNPIGSLQELAIHHGWRLPEYTLSQEGGPAHKREYTTICRLESFMETGKGASKKQAKRNAAEKFLAKFSNISPENHISLTNVVGHSLGCTWHSLRNSPGEKINLLKRSLLSIPNTDYIQLLSEIAKEQGFNITYLDIDELSANGQYQCLAELSTSPITVCHGSGISCGNAQSDAAHNALQYLKIIAERK |
